Data as given in PubChem BioAssay AID504808 (Drosophila RNAi Screening Center, 2011)

- Test: 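Genes whose loss lifts activity of an E2F-responsive reporter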 (primary screen)
- Cell system: Drosophila S2 cells
- Knock-down reagent: long dsRNA against Drosophila genes
- Measurement: 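Firefly luciferase driven by E2F sites, normalised to Renilla luciferase on the same minimal promoter, measured by plate reader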
- Reading the numbers: E2F firefly: higher = more E2F reporter activity; Renilla normaliser: higher = more normaliser reporter signal
- Active means: 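Called active if the normalised E2F reporter went up by over 50%; the cutoff is arbitrary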
The deposit covers about 21,000 reagents; below is a random part of those with a known target gene and a result. Of all reagents, 18 (0.084%) were called active. 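Raw counts without plate normalisation, one of two replicates; the ratio scores behind the calls were not deposited.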 The numbers tell different reagents against one gene apart. A plus sign joins genes that one reagent is predicted to hit. No sequences are given here. Not stated in the record: the amount of reagent, the time to read-out.

| gene | dsRNA no. | E2F firefly, rep 1 | Renilla normaliser, rep 1 | Outcome |
| --- | --- | --- | --- | --- |
| Oxp (Oxpecker) | 1 | 1.41e5 | 5602 | inactive |
| CG6937 + btn | 1 | 96349 | 5575 | inactive |
| CG3337 | 1 | 44837 | 3830 | inactive |
| Cnb (Centrobin) | 1 | 71026 | 2770 | inactive |
| l(3)S110416 (retired record) | 1 | 65001 | 3003 | inactive |
| CNMa (CNMamide) | 1 | 88220 | 4509 | inactive |
| CG7778 | 1 | 95795 | 3818 | inactive |
| ND-51L2 (NADH dehydrogenase (ubiquinone) 51 kDa subunit-like 2) | 1 | 98382 | 4197 | inactive |
| Txl (Thioredoxin-like) | 1 | 76152 | 3337 | inactive |
| vih (vihar) | 1 | 89568 | 4680 | inactive |
| AdoR (Adenosine receptor) | 1 | 82670 | 5478 | inactive |
| fmt (fiery mountain) | 1 | 74907 | 3032 | inactive |
| CG14710 | 1 | 70417 | 3718 | inactive |
| CG15209 | 1 | 1.06e5 | 6125 | inactive |
| LUBEL (Linear Ubiquitin E3 ligase) | 1 | 1.43e5 | 4600 | inactive |
| Usp7 (Ubiquitin-specific protease 7) | 1 | 84575 | 3063 | inactive |
| Usp7 (Ubiquitin-specific protease 7) | 2 | 1.31e5 | 7005 | inactive |
| CG17544 | 1 | 84698 | 3234 | inactive |
| Rilpl (Rab interacting lysosomal protein like) | 1 | 1932 | 1032 | inactive |
| CG13323 | 1 | 1.03e5 | 3984 | inactive |
| CG32206 | 1 | 79088 | 3690 | inactive |
| CG32206 | 2 | 1.45e5 | 6965 | inactive |
| CG32206 | 3 | 1.48e5 | 7278 | inactive |
| CG32206 | 4 | 1.44e5 | 7950 | inactive |
| CG32206 | 5 | 1.41e5 | 7518 | inactive |
| Ugt36F1 (UDP-glycosyltransferase family 36 member F1) | 1 | 1.04e5 | 4499 | inactive |
| mRpL40 (mitochondrial ribosomal protein L40) | 1 | 1.47e5 | 6476 | inactive |
| RpL24-like (Ribosomal protein L24-like) | 1 | 1.16e5 | 7422 | inactive |
| CG34169 | 1 | 1.45e5 | 6338 | inactive |
| Liprin-beta | 1 | 99668 | 6758 | inactive |
| cact (cactus) | 1 | 59130 | 2879 | inactive |
| Pdp (Pyruvate dehydrogenase phosphatase) | 1 | 7629 | 824 | inactive |
| X11L | 1 | 1.82e5 | 5665 | inactive |
| X11L | 2 | 1.48e5 | 5782 | inactive |
| Ets97D (Ets at 97D) | 1 | 1.26e5 | 6304 | inactive |
| CG4928 | 1 | 1.80e5 | 5648 | inactive |
| CG13245 | 1 | 77887 | 3555 | inactive |
| rush (rush hour) | 1 | 2046 | 960 | inactive |
| Mapmodulin | 1 | 71149 | 3498 | inactive |
| CG8617 | 1 | 1.06e5 | 4747 | inactive |
| CG10631 | 1 | 70342 | 3166 | inactive |
| Uck (Uridine-cytidine kinase) | 1 | 78970 | 2068 | inactive |
| Uck (Uridine-cytidine kinase) | 2 | 99010 | 6694 | inactive |
| mRpL52 (mitochondrial ribosomal protein L52) | 1 | 1.49e5 | 5160 | inactive |
| CG15547 | 1 | 1.23e5 | 6802 | inactive |
| vig (vasa intronic gene) | 1 | 1.08e5 | 4837 | inactive |
| vig (vasa intronic gene) | 2 | 77135 | 3415 | inactive |
| Not1 | 1 | 1.50e5 | 5573 | inactive |
| Not1 | 2 | 3473 | 248 | inactive |
| CG16756 | 1 | 1.14e5 | 7466 | inactive |
| fs(2)ltoPP43 (female sterile (2) ltoPP43) | 1 | 89294 | 3921 | inactive |
| CG30378 | 1 | 1.23e5 | 5064 | inactive |
| CG13358 | 1 | 1.27e5 | 5634 | inactive |
| FLASH (FLICE-associated huge protein) | 1 | 50792 | 3351 | inactive |
| obe (obelus) | 1 | 85869 | 3764 | inactive |
| CG9702 | 1 | 1.29e5 | 6937 | inactive |
| Oscillin | 1 | 87501 | 3738 | inactive |
| Cpr50Ca (Cuticular protein 50Ca) | 1 | 1.23e5 | 4981 | inactive |
| Cpr50Ca (Cuticular protein 50Ca) | 2 | 89781 | 3596 | inactive |
| Cpr50Ca (Cuticular protein 50Ca) | 3 | 1.03e5 | 4685 | inactive |
| Atg6 (Autophagy-related 6) | 1 | 72595 | 3201 | inactive |
| CG13311 | 1 | 89589 | 3669 | inactive |
| Obp56d (Odorant-binding protein 56d) | 1 | 1.61e5 | 5356 | inactive |
| CG1143 | 1 | 87553 | 3830 | inactive |
| Arglu1 (Arginine and glutamate rich 1) | 1 | 1.58e5 | 5072 | inactive |
| blp (black pearl) | 1 | 1.23e5 | 6574 | inactive |
| CG7720 | 1 | 79624 | 3436 | inactive |
| CG7720 | 2 | 52161 | 3667 | inactive |
| Tbc1d15-17 (TBC1 domain family member 15/17) | 1 | 85563 | 3800 | inactive |
| CG31224 | 1 | 50235 | 3225 | inactive |
| CG31224 | 2 | 76197 | 4254 | inactive |
| CG10344 | 1 | 1.03e5 | 4293 | inactive |
| CG33635 | 1 | 1.33e5 | 5250 | inactive |
| CG12177 | 1 | 74714 | 3999 | inactive |
| CG3764 | 1 | 74212 | 3532 | inactive |
| Letm1 | 1 | 75066 | 3424 | inactive |
| psidin (phagocyte signaling impaired) | 1 | 1.48e5 | 7740 | inactive |
| kek2 (kekkon 2) | 1 | 1.67e5 | 6638 | inactive |
| cona (corona) | 1 | 1.29e5 | 6825 | inactive |
| Dtwd2 (DTW domain containing 2) | 1 | 1.22e5 | 5875 | inactive |
| GramD1B (GRAM domain containing 1B) | 1 | 1.59e5 | 5037 | inactive |
| GramD1B (GRAM domain containing 1B) | 2 | 1.02e5 | 3674 | inactive |
| Cyp318a1 (Cytochrome P450 318a1) | 1 | 1.42e5 | 7599 | inactive |
| CG17364 | 1 | 1.17e5 | 5034 | inactive |
| CG17364 | 2 | 1.08e5 | 5250 | inactive |

Entries above whose target name begins with O or o (4):
| gene | dsRNA no. | E2F firefly, rep 1 | Renilla normaliser, rep 1 | Outcome |
| --- | --- | --- | --- | --- |
| Oxp (Oxpecker) | 1 | 1.41e5 | 5602 | inactive |
| obe (obelus) | 1 | 85869 | 3764 | inactive |
| Oscillin | 1 | 87501 | 3738 | inactive |
| Obp56d (Odorant-binding protein 56d) | 1 | 1.61e5 | 5356 | inactive |
